# From patent publication US12312379B2 (Chugai Seiyaku Kabushiki Kaisha, priority 2021, dated 2025)
# Test: peptide synthesis
substance,measurement,setting,value
(3S)-3-[[(2S)-2-[[1-[[(2S)-1-benzyloxycarbonylpyrrolidine-2-carbonyl]amino]cyclopentanecarbonyl]-methyl-amino]-2-cyclopentyl-acetyl]-methyl-amino]-4-(dimethylamino)-4-oxo-butanoic acid,step yield,"late stage modification step, qNMR",94.1% yield
benzyl (2S)-2-[[1-[[(1S)-2-[[(1S)-3-tert-butoxy-1-(dimethylcarbamoyl)-3-oxo-propyl]-methyl-amino]-1-cyclopentyl-2-oxo-ethyl]-methyl-carbamoyl]cyclopentyl]carbamoyl]pyrrolidine-1-carboxylate,step yield,"coupling step, qNMR",50.9%
"tert-butyl 2-[[(2S)-2-[[(2S)-1-[(2S)-2-[[(2S,3S)-2-(benzyloxycarbonylamino)-3-methyl-pentanoyl]-methyl-amino]propanoyl]azetidine-2-carbonyl]-ethyl-amino]-3-(p-tolyl)propanoyl]-methyl-amino]acetate",step yield,"coupling step, run 1",75.1% yield
same,step yield,"coupling step, run 2",63%
same,step yield,"coupling step, run 3",66%
same,step yield,"coupling step, run 4",62%
same,step yield,"coupling step, run 5",60%
tert-butyl (3S)-3-[[(2S)-2-cyclopentyl-2-[methyl-[1-[[(2S)-pyrrolidine-2-carbonyl]amino]cyclopentanecarbonyl]amino]acetyl]-methyl-amino]-4-(dimethylamino)-4-oxo-butanoate,step yield,late stage modification step,92.3%
